Measured values taken from PubChem BioAssay AID1487 (National Center for Advancing Translational Sciences (NCATS), 2009).
Some of the results follow. Shown are side measurements of this screen, not its main read-out; they come without a call. Most of these compounds were active or inconclusive in the main read-out, so they are no random draw. Potencies come from curve fits of mixed quality, noted in brackets.

Experiment: qHTS Assay for Modulators of Lamin A Splicing
Settings: HeLa LMNA splicing GFP/RFP minigene ratio, 48 h
Outline: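 S3 HeLa cells stably expressing lamin A-EGFP splicing minigene plus DsRed2, 600 cells/well, 48 h compound exposure at 37C. Laser-scanning cytometry; analysed as GFP (500-530 nm)/RFP (575-640 nm) total intensity ratio; 0.5% DMSO vehicle.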

[1] = measured here: RFP viability control channel
[2] = measured here: GFP splicing reporter channel

| SMILES | AC50 [1] | AC50 [2] |
| --- | --- | --- |
| Cc1cc(NC(=O)c2ccco2)ncc1NC(=O)CCc1ccccc1 | 35.5 µM [rising, single point] | – |
| Cc1cc(N=Cc2c(O)n(-c3cccc(Cl)c3)c(=O)c3ccccc23)no1 | 20 µM [rising, partial curve, poor fit] | 14.1 µM [rising, partial curve, poor fit] |
| CC1=C(n2nnc([N+](=O)[O-])n2)C(c2cccnc2)C(C#N)=C(N)O1 (centres undefined) | 14.1 µM [rising, single point] | 14.1 µM [rising, single point] |
| CCCC(=O)c1cc(F)c(N2CCN(S(=O)(=O)c3ccccc3)CC2)cc1C | 35.5 µM [rising, single point] | – |
| CS(=O)(=O)Nc1ccc(C2=NN(S(=O)(=O)c3ccccc3)C(c3cccs3)C2)cc1 (centres undefined) | 0.0178 µM [falling, full curve] | 0.0126 µM [falling, full curve, poor fit] |
| CCN(CCO)Cc1cc(=O)oc2cc3c(cc12)CCC3 | 2 µM [falling, partial curve, poor fit] | – |
| Cc1cc(/C=N/n2cnnc2)c(C)n1-c1cc(Cl)ccc1Cl | 22.4 µM [rising, single point] | – |
| CCOC(=O)c1cccc(NC(=O)CCc2c(C)nn(-c3ccc(N4CCOCC4)nn3)c2C)c1 | – | 0.00316 µM [falling, full curve, poor fit] |
| CCN(C(=O)CSc1nc2n[nH]c(C)c2c(=N)n1-c1cccc(OC)c1)c1cccc(C)c1 | 0.00316 µM [falling, full curve, poor fit] | 31.6 µM [falling, single point] |
| Cc1ccc(OCC(=O)Nc2ccc3c(c2)OCO3)c(C)c1 | 0.00501 µM [falling, full curve, poor fit] | – |
| Cn1c(=O)c(=O)n(C)c2cc([N+](=O)[O-])c([N+](=O)[O-])cc21 | 14.1 µM [rising, partial curve] | – |
| O=C(O)Cc1cc(I)c(Oc2ccc(O)c(I)c2)c(I)c1 | 15.8 µM [rising, partial curve] | 12.6 µM [rising, single point] |
| O=C(/C=C/c1ccc([N+](=O)[O-])cc1)c1cccnc1 | 25.1 µM [falling, single point] | 35.5 µM [falling, single point] |
| COc1ccc(Cl)cc1NC(=O)C(C)N1CCN(C/C=C/c2ccccc2)CC1 (centres undefined) | 31.6 µM [rising, single point] | 14.1 µM [rising, single point] |
| O=S(=O)(Cc1ccccc1Cl)N1CCN(Cc2ccc3c(c2)OCO3)CC1 | 17.8 µM [rising, single point] | – |
| CCOC(=O)c1ccc2[nH]c(CSc3nnc(-c4cccc(F)c4)n3C)cc(=O)c2c1 | 35.5 µM [rising, single point] | – |
| C(=C\c1ccccc1)/CN1CCN(Cc2nc(Cc3ccccc3)no2)CC1 | 0.0316 µM [falling, full curve, poor fit] | – |
| Cc1ccc(/C=C2\C(=O)Nc3ccccc32)o1 | 10 µM [rising, partial curve] | – |
| O=C1CCCc2nc(N3CCN(Cc4ccccc4)CC3)ncc21 | 12.6 µM [rising, partial curve] | – |
| O=C1c2ccccc2C2=Nc3ccccc3SC(c3ccccc3F)C12 (centres undefined) | 14.1 µM [falling, partial curve] | 14.1 µM [falling, single point] |
| O=C(/C=C/c1cccc([N+](=O)[O-])c1)c1cccs1 | 35.5 µM [falling, single point] | 28.2 µM [falling, single point] |
| N#Cc1ccc(CSc2nnc(-c3cccnc3)o2)cc1 | 0.0224 µM [rising, full curve, poor fit] | 17.8 µM [rising, partial curve, poor fit] |
| O=C(Nc1nc(-c2ccc3ccccc3c2)cs1)C1CCN(S(=O)(=O)c2cccs2)CC1 | 2.51 µM [rising, full curve] | – |
| CC(C)C(=O)Nc1ccc(C(=O)Nc2nnc(C(C)C)s2)cc1 | 17.8 µM [falling, partial curve, poor fit] | 11.2 µM [falling, single point] |
| COc1cc(C(C)=O)cc(OC)c1O | 0.00708 µM [falling, full curve, poor fit] | – |
| CCc1ccc(-c2nc(CN3CCC(C(=O)NCc4ccccc4OC)CC3)c(C)o2)cc1 | 11.2 µM [rising, partial curve] | 3.55 µM [rising, full curve, poor fit] |
| COc1ccc(NC(=O)N2CCCC(c3nc(-c4ccc(C(C)C)cc4)no3)C2)cc1 (centres undefined) | 8.91 µM [rising, partial curve] | 5.62 µM [rising, full curve, poor fit] |

| SMILES | AC50 [1] | AC50 [2] |
| --- | --- | --- |
| CC(C)(C)NC(=O)c1ccc2c(c1)C1C3CCC(C3)C1C(c1ccccc1)N2 (centres undefined) | 25.1 µM [rising, partial curve] | 2.82 µM [rising, partial curve, poor fit] |
| COc1ccc(-n2nc(C(=O)NCC(=O)NCc3ccco3)c3ccccc3c2=O)cc1Cl | 11.2 µM [rising, single point] | – |
| CC(Oc1ccc(C(=O)c2ccccc2)cc1)C(=O)Nc1ccc(S(N)(=O)=O)cc1 (centres undefined) | 22.4 µM [rising, single point] | – |
| CCOc1ccc(C2C=C(c3ccc(C)cc3)Nc3nnnn32)cc1 (centres undefined) | 12.6 µM [rising, partial curve, poor fit] | – |
| Cc1ccc2nc(-c3ccc(NC(=O)CN4CCN(C(=O)c5ccco5)CC4)cc3)sc2c1 | 10 µM [rising, single point] | – |
| O=C(CCOc1ccccc1)N(Cc1cccnc1)c1nc2ccc(F)cc2s1 | – | 17.8 µM [falling, single point] |
| CCOc1ccc(/C=C/C2=NNC(=O)CC2)cc1 | 0.891 µM [rising, partial curve] | 1.41 µM [rising, partial curve] |
| O=C(Nc1ccc(F)cc1)N1CCN(C/C=C/c2ccccc2)CC1 | 35.5 µM [rising, single point] | 12.6 µM [rising, partial curve] |
| CC(=O)NNc1ncnc2ccccc12 | 8.91 µM [rising, partial curve] | – |
| CCOc1ncccc1C(=O)OCc1ccc(C(=O)OC)o1 | 35.5 µM [rising, single point] | – |
| CCOc1ccc(C(NC(C)=O)c2ccc(OC)c(OC)c2)cc1 (centres undefined) | 0.00316 µM [falling, full curve, poor fit] | 35.5 µM [falling, single point] |
| Cc1ccc(NCc2nnc(SCC(=O)c3ccccc3)o2)c(C)c1 | 11.2 µM [rising, partial curve] | 15.8 µM [rising, partial curve] |
| Cc1cccc(NS(=O)(=O)c2ccc(NC(=O)N3CCCC3)cc2)c1 | – | 0.0224 µM [falling, full curve, poor fit] |
| CCOC(=O)CCNC(=O)CNC(=O)OCc1ccccc1 | – | 3.98 µM [falling, single point] |
| O=C(CN1CCN(c2ccc(O)cc2)CC1)NC1CCCc2ccccc21 (centres undefined) | 15.8 µM [rising, partial curve, poor fit] | – |
| COc1ccc(Nc2nc(-c3c[nH]c4ccccc34)cs2)cc1 | 1.12 µM [rising, full curve, poor fit] | 0.708 µM [rising, full curve, poor fit] |
| CC(C)(C)C1CCc2c(C(=O)NNC(=O)/C=C/C(=O)O)csc2C1 (centres undefined) | 15.8 µM [rising, single point] | – |
| COc1ccc(C(=O)Nc2nc(-c3ccc(S(=O)(=O)N4CCOCC4)cc3)cs2)cc1 | 11.2 µM [rising, single point] | 14.1 µM [rising, single point] |
| COc1cc(OC)cc(C(=O)N[C@H](C(=O)OCc2cc(=O)oc3cc(C)ccc23)C(C)C)c1 | 5.62 µM [rising, single point] | 1.58 µM [rising, partial curve] |
| Cc1ccc(C(=O)C(C)CN2CCCCC2)cc1 (centres undefined) | 12.6 µM [rising, partial curve, poor fit] | 22.4 µM [falling, single point] |
| O=C(c1ccco1)N1CCN(c2ccc(Cl)cc2)CC1 | 8.91 µM [rising, partial curve] | – |
| COc1cc(C(=O)c2c(C)c(CCC#N)n3ccccc23)cc(OC)c1OC | 0.631 µM [rising, partial curve] | – |
| O=C(N/N=C/c1ccc(Br)cc1)c1cc[n+](Cc2ccccc2)cc1 | – | 3.98 µM [falling, single point] |
| O=C(CSc1nc2ccccc2c2nc3ccccc3n12)NCc1ccco1 | 10 µM [rising, partial curve, poor fit] | – |
| CC1CN(S(=O)(=O)c2ccc(C(=O)Nc3sccc3C(N)=O)cc2)CC(C)O1 (centres undefined) | 11.2 µM [rising, partial curve] | 6.31 µM [rising, full curve, poor fit] |
| CCCc1ccc(Oc2cn[nH]c2-c2ccc(O)cc2O)cc1 | 15.8 µM [rising, partial curve] | 22.4 µM [rising, single point] |
| COc1cccc(-c2cc(C(F)(F)F)nc(NCc3ccco3)n2)c1 | 35.5 µM [rising, single point] | 35.5 µM [rising, single point] |

Three records drawn at random from the list so far:

| SMILES | AC50 [1] | AC50 [2] |
| --- | --- | --- |
| CCOC(=O)c1cccc(NC(=O)CCc2c(C)nn(-c3ccc(N4CCOCC4)nn3)c2C)c1 | – | 0.00316 µM [falling, full curve, poor fit] |
| COc1cc(C(C)=O)cc(OC)c1O | 0.00708 µM [falling, full curve, poor fit] | – |
| O=C1CCCc2nc(N3CCN(Cc4ccccc4)CC3)ncc21 | 12.6 µM [rising, partial curve] | – |
